# Measurements published in the supplement of paper PMC5949888.
# Most values lie at the floor of the assay. Slopes are relative: functional sequences can read slightly below zero.
# System: Saccharomyces cerevisiae PS128 hsf1 delta, HSF1(1-493) fusion
# Experiment: growth estimate (transactivation domain function in HSF1 fusion, heat-shock survival) (a.u. (slope of normalised read count over time)); higher = stronger growth at 37°C, i.e. more transactivation activity
# Details: library: random library
row,Substance,growth estimate
1,NLVLVVGRLSRRY,< -0.25
2,SSVP,< -0.25
3,PHFPTGIRVACVDHSVSPVT,< -0.25
4,TVSLREVYRVQNRLPERV,< -0.25
5,QLYRKS,< -0.25
6,FTSEFEGLS,-0.144
7,LVGRNLKDVTLRQR,-0.245
8,IEQGTISGPRALMTLSTTNP,< -0.25
9,ELMLDLLTRRHPF,< -0.25
10,PSRTGKLG,< -0.25
11,SCGEDLGGGD,< -0.25
12,VDWSLGGLLRYRKSQPGPPT,< -0.25
13,KLRLLGSVEWEFVADRLIAS,< -0.25
14,GSSYALVTRTGRRTVGTQLK,< -0.25
15,KIPPLQSEFRRPIAGAVCVT,< -0.25
16,FLPYVHPER,< -0.25
17,MMRRRDTSET,< -0.25
18,CTYGTDRTWIGSSGTGITVS,< -0.25
19,GPAGP,< -0.25
20,GGKHAGHTR,< -0.25
21,MGPPVSKCAWFEEAPGGCWA,< -0.25
22,DGIHGGDHPVKAWHSSLDT,< -0.25
23,AWRTSRKALSVPFRVILGST,< -0.25
24,SNAVC,< -0.25
25,ITSSELI,< -0.25

row,Substance,growth estimate
1,PRKEDVSRNTSSASDRVAGQ,< -0.25
2,SVLTLESLQLRQ,< -0.25
3,RSWGNA,< -0.25
4,SINQKSLGTYEQYGNKRPGP,< -0.25
5,PPVARVGQVLRMHLDTCPNV,< -0.25
6,AMAKSISESAV,< -0.25
7,VHTLTIKSVVVFDVHGSTGN,< -0.25
8,GGRDLDH,< -0.25
9,GKWSDRDTTWVGNSEGEPAK,< -0.25
10,CVLRCTLFMRLCSGHVHL,< -0.25
11,TFKLLDFTCHRYHAILSRG,< -0.25
12,KQY,< -0.25
13,LRGVSPQCTSEGVQAESLFR,-0.245
14,RWANTVYL,< -0.25
15,RPGRSGTRERDLM,< -0.25
16,LCCPRGVFNKSGPMRCRRQA,< -0.25
17,PTSFRSHSP,< -0.25
18,FYVELAGCGR,< -0.25
19,LLFFE,-0.25
20,WVRSKPNHGYWRSFA,< -0.25
21,LNRAFPE,< -0.25
22,ADSAGLLGPSTNS,-0.248
23,NGHCTCGRPP,< -0.25
24,GHDYLVFQYSFDHL,-0.11
25,RVEGVSGETDVERATKVAHM,< -0.25

row,Substance,growth estimate
1,NYARLFFLKYARWNRNSPLW,< -0.25
2,WLDAGPSTPRTGTVKVIIPQ,< -0.25
3,TVGRDVLTLRLTRDQRGWHV,< -0.25
4,SRAT,< -0.25
5,PLLRDTKVQVLS,< -0.25
6,VQLESSLRYWNLVHLTGVGT,< -0.25
7,YVEFRSSLPRYGKSLKSKVT,< -0.25
8,SQDRLMLKWVESLRL,< -0.25
9,RSPIFAAVGQRGNTGTFALH,< -0.25
10,SFSLVFTRA,< -0.25
11,QMYADTE,< -0.253
12,TGYAGVAAI,< -0.25
13,SYHFTRGCKSAFPG,< -0.25
14,SAKF,< -0.25
15,YTSSEGPNLATNLGYALVND,< -0.25
16,PTHVRIWHSLDFNSRATAAE,< -0.25
17,LPPVMIADVGSCGKGYRET,< -0.25
18,HPQWAGSYLCSPRKTYG,< -0.25
19,CLCLMCACLGGPRIEKKDIM,< -0.25
20,LELGK,< -0.25
21,FHVPESQWVVDI,< -0.25
22,KSAGKVWGARGTS,< -0.25
23,YSERMGRHHIRKLPR,< -0.25
24,CSRSDIFVDLLAEEQMISLV,< -0.25
25,PSSRPGFIRIGFRSSMCR,< -0.25

row,Substance,growth estimate
1,GGASRLKREEHAPRRRARLN,< -0.25
2,KRFHTASGIL,-0.192
3,SIRILTARYHAVTGYSFPSM,< -0.25
4,IPGLYIVGKGVISRYNTIRP,< -0.25
5,PSRSLLHSR,< -0.25
6,TCST,< -0.25
7,GQLRMLRGVAKRRSYSPG,< -0.25
8,RAVGILYV,< -0.25
9,FNALTS,< -0.25
10,TIKRGGSNN,< -0.25
11,HDML,< -0.25
12,LLGQFPKFALMTGEKWLCLK,< -0.25
13,SIGDEARPACCAACVRSVRR,< -0.25
14,VRGAPFCA,< -0.25
15,NMNIRIGAPKNPVIIRSP,< -0.25
16,YLVARWRFSGSGVVGILT,< -0.25
17,GHHQANRWSGPGRWPIRVRL,< -0.25
18,STDMENEISHPAVGIRWPGG,0.183
19,QKCVVCVRLGDRNESDHSDA,< -0.25
20,NRCPLINRPLWYKTILATRP,< -0.25
21,LRNLKSGSQARRREQA,< -0.25
22,RRAVERRGPSGVTPLWYTPG,< -0.25
23,HPWLWRGFE,< -0.25
24,TEYGPLSSSANKQLPRTPRK,< -0.25
25,VAASMSEPTPLGRCRHGPPA,< -0.25

row,Substance,growth estimate
1,DCWVEGAFVAGMSHN,< -0.25
2,LRCSCLKKRLDGCPWPPGFG,< -0.25
3,RIPVILCFVGAHPQGVSQLI,< -0.25
4,MQTGMYLGR,< -0.25
5,VKLLIARGDRLAAMPRNGYA,< -0.25
6,WPRY,< -0.25
7,MWQCLNNQG,< -0.25
8,SVGVHEVRDETGSQAHRRWG,< -0.25
9,WEVLLVMQIVVRVRSRIRLK,< -0.25
10,MEGGVPKRKVPAVRPEVSTM,< -0.25
11,IKVNLARYFWCLS,< -0.25
12,YSKRGEKVSVLRASSSWAAF,< -0.25
13,FGLYGTARGYQRPRVTPTAH,< -0.25
14,VSRSVTNSVVSSKFTRGSGS,< -0.25
15,HNNDRVTEGVFCHDS,< -0.25
16,SFVYREHCTSGTGIAGPRSS,< -0.25
17,IFWDRLESRSSDGLCCEITR,< -0.25
18,IGSCPNTVKPQRIGKVLFQM,< -0.25
19,RGRISPDLLMSAKETGQRTR,< -0.25
20,GEPLHNFARCF,-0.199
21,SCQGSLWCGTGSLSY,< -0.25
22,GFFGMSLPGCCGEQSGIAEH,< -0.25
23,WAPVALAKGIHQLGAKATAS,< -0.25
24,QCNKRYCGVEWMFAKSSAI,< -0.25
25,FDYKPRIVPGSRFVCSAKCP,< -0.25

# Four entries from above, with tabs:
row	Substance	growth estimate
21	SCQGSLWCGTGSLSY	< -0.25
22	GFFGMSLPGCCGEQSGIAEH	< -0.25
23	WAPVALAKGIHQLGAKATAS	< -0.25
24	QCNKRYCGVEWMFAKSSAI	< -0.25

# Continuation.

row,Substance,growth estimate
1,VSSRIDQVGHYY,< -0.25
2,VFEAVYTLTTQGSSGERLEL,< -0.25
3,LILKCLPFNDRIL,< -0.25
4,TACIWIRRCRGLGVQWISIP,< -0.25
5,THKMITDCCLMASFTTATNT,< -0.25
6,RSSRGKQSLVEGGLRNSGSR,< -0.25
7,VQDMVLGRFWMKQTSNPGRW,< -0.25
8,SCATRMERFTPERGSSNRPT,< -0.25
9,VWA,< -0.25
10,PEGPMSGVGHLHRGRCRILL,< -0.25
11,SGVWESAHVARRDIIHSMGG,< -0.25
12,TYDIGHLSLGVATLSSSPLG,< -0.25
13,REVSNSLRNSKSRARASPLV,-0.133
14,ETNRLKE,< -0.25
15,SGSPLILTVDSMSEANCLVL,< -0.25
16,RGEKTTTTTGNQSREG,< -0.25
17,HTQAHFRVPSCLRPTALGAV,< -0.25
18,NCRREIRSGLLNNFHIGRPV,< -0.25
19,RAWSFASNLID,< -0.25
20,LCSGLVAGQIQTR,< -0.25
21,CIEE,< -0.25
22,TSQVRGGSFLVRRVRHWR,< -0.25
23,LNNGFAHVRTSPGVD,< -0.25
24,TASPWRGKLNMFVTGSLSFN,< -0.25
25,YRLSNRVEFLGGVLHLPD,-0.219

row,Substance,growth estimate
1,VGTFRGMFRVIGPMGCFLGV,< -0.25
2,CVTKIY,< -0.25
3,AFGAFPASDEGSWTTFVYGI,< -0.25
4,VRDWVLGFKAQGLADMVRYV,< -0.25
5,STHGPRPCKCVRP,< -0.25
6,HLAGRDFNQLGDSSPPLGAV,< -0.25
7,LVYQL,< -0.25
8,CKKTWFYRASVSSLKPLARS,< -0.25
9,LSLHAKDLPMIWSVRVVWFI,< -0.25
10,TTLEGSAAPCV,< -0.25
11,EELHPNYCGMNHPDWDG,< -0.25
12,LQAVDDSPVKCGDRGPPPAT,< -0.25
13,FRFVSRVD,< -0.25
14,GTRCKPAPV,< -0.25
15,MGKDATLLAADRQV,< -0.25
16,DMRGSKRYPMKVSFYTCVNR,< -0.25
17,TKYLRKSTVQFRVQSFPSAT,< -0.25
18,GPHARLWSRVGSVLIGP,< -0.25
19,PGLLRWRRV,< -0.25
20,SNTQSGSCK,< -0.25
21,SAGTELQLASFPASSILYVL,< -0.25
22,RSENYLAGGTGIAAVC,< -0.25
23,LSRSVTEARARHSANPCSGS,< -0.25
24,YAQEHMRDAHLVSHVKHYAK,< -0.25
25,QNSHQLGSYWEGAINWNM,-0.193

# An excerpt of the results above:
row,Substance,growth estimate
18,GPHARLWSRVGSVLIGP,< -0.25
19,PGLLRWRRV,< -0.25

# Continuation:

row,Substance,growth estimate
1,MGFALKQPVCGAAAECPKAT,< -0.25
2,SMLGEQRGATESCSHGHHLA,< -0.25
3,PHGP,< -0.25
4,WPAATQVHVRTNL,< -0.25
5,LGVGGLSLVIDRSGVNCVCE,< -0.25
6,DDPCV,< -0.25
7,PALQGVNR,< -0.25
8,ALADHLVPQSKAPRTTTGNL,< -0.25
9,KSLGGCLIPNWPDEQGGIQR,< -0.25
10,RVEVVSG,< -0.25
11,EPLSRLHYQLAECCGS,-0.229
12,SSVIHARPI,< -0.25
13,SILTLRALMSL,< -0.25
14,YTPCPATQLAPGGNRSHEYE,< -0.25
15,VYWV,< -0.25
16,SRGYEKCGPGLQPFSQAR,< -0.25
17,LIL,-0.217
18,WSTNSTPGTHPLVS,< -0.25
19,RLMWNAGGSEPAS,< -0.25
20,RHGPYGGRLTNAAAEM,-0.227
21,LGRMGHPMPLILAPLSRRHA,< -0.25
